# Screening data

Source: PubChem BioAssay AID1053133 (Broad Institute, 2014).

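Vaccinia-infected cells with a two-color viral stage reporter; Venus fluorescence read on a plate reader; the cell line is not named here; timing not stated here.
The test concentration is not given here.
Percent change in Venus reporter signal; lower (more negative) values mean stronger inhibition of that viral stage.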

Values are in %.
The controls that fix the scale are not given here.
Common to all entries: measured here: Venus reporter, other viral stage.
This is a side read-out of the assay, for part of the compounds, not drawn at random.

{"smiles": "COc1ccc(S(=O)(=O)Nc2ccc3c(c2)C(=O)N([C@H](C)CO)C[C@H](C)[C@H](CN(C)C(=O)C2CCCCC2)OCCCC[C@H](C)O3)cc1", "activity change (Venus) (%)": "-64.8"}
{"smiles": "C[C@@H]1CCCCO[C@@H](CN(C)S(=O)(=O)c2cccs2)[C@H](C)CN([C@@H](C)CO)C(=O)c2cc(NS(=O)(=O)c3ccccc3)ccc2O1", "activity change (Venus) (%)": "-43.55"}
{"smiles": "CC(C)CC#Cc1ccc2c(c1)O[C@H](CN(C)Cc1ccc3c(c1)OCO3)[C@H](C)CN([C@@H](C)CO)S2(=O)=O", "activity change (Venus) (%)": "-61.52"}
{"smiles": "COc1ccccc1NC(=O)N1CCCCN2[C@H](CO)[C@@H](c3ccc(C#CC4CC4)cc3)[C@H]2C1", "activity change (Venus) (%)": "-54.98"}
{"smiles": "COc1ccc(NC(=O)N2CCCCN3[C@H](CO)[C@H](c4ccc(C#CCC(C)C)cc4)[C@H]3C2)cc1", "activity change (Venus) (%)": "-78.04"}
{"smiles": "CO[C@H]1CN(C)C(=O)c2ccc(NC(=O)Nc3cccc(Cl)c3)cc2OC[C@H](C)NC[C@H]1C", "activity change (Venus) (%)": "-17.95"}
{"smiles": "COc1ccc(NC(=O)Nc2ccc3c(c2)C(=O)N([C@H](C)CO)C[C@@H](C)[C@H](CN(C)Cc2ccc4c(c2)OCO4)OCCCC[C@@H](C)O3)cc1", "activity change (Venus) (%)": "-30.38"}
{"smiles": "C[C@@H]1CN([C@@H](C)CO)S(=O)(=O)c2ccc(/C=C/c3ccccc3)cc2O[C@@H]1CN(C)C(=O)NC1CCCC1", "activity change (Venus) (%)": "-43.31"}
{"smiles": "C[C@@H]1CN([C@@H](C)CO)S(=O)(=O)c2ccc(C#Cc3ccncc3)cc2O[C@H]1CN(C)C(=O)C1CCCCC1", "activity change (Venus) (%)": "-34.24"}
{"smiles": "C[C@@H]1CN([C@H](C)CO)C(=O)c2cc(NC(=O)Nc3ccccc3)ccc2O[C@@H](C)CCCCO[C@H]1CN(C)Cc1ccc2c(c1)OCO2", "activity change (Venus) (%)": "-51.6"}
{"smiles": "C[C@H]1CN([C@@H](C)CO)C(=O)c2cccc(NC(=O)Nc3ccccc3)c2O[C@H]1CN(C)C(=O)Nc1ccc(C(F)(F)F)cc1", "activity change (Venus) (%)": "-43.32"}
{"smiles": "CC(C)C#Cc1ccc([C@@H]2[C@@H](CO)N3CCCCN(C(=O)Nc4ccccc4)C[C@H]23)cc1", "activity change (Venus) (%)": "-45.75"}
{"smiles": "C[C@@H]1CN([C@@H](C)CO)C(=O)c2c(c3ccccc3n2C)-c2ccccc2CO[C@H]1CN(C)S(=O)(=O)c1ccccc1F", "activity change (Venus) (%)": "-45.82"}
{"smiles": "C[C@@H]1CN([C@H](C)CO)C(=O)c2cc(NS(=O)(=O)c3ccccc3)ccc2O[C@@H](C)CCCCO[C@H]1CN(C)S(=O)(=O)c1ccc(F)cc1", "activity change (Venus) (%)": "-38.35"}
{"smiles": "C[C@@H]1CN([C@H](C)CO)C(=O)Cc2cc(NS(=O)(=O)c3ccccc3)ccc2O[C@@H]1CN(C)Cc1ccc(Oc2ccccc2)cc1", "activity change (Venus) (%)": "-26.39"}
{"smiles": "C[C@@H]1CN([C@H](C)CO)S(=O)(=O)c2ccc(C#CC3CCCC3)cc2O[C@@H]1CN(C)C(=O)C1CC1", "activity change (Venus) (%)": "-33.71"}
{"smiles": "O=C(Nc1cccc(F)c1)N1CC(=O)N2[C@H](CO)[C@@H](c3ccc(-c4cccc(F)c4)cc3)[C@H]2C1", "activity change (Venus) (%)": "-65.75"}
{"smiles": "C[C@@H]1CN([C@H](C)CO)S(=O)(=O)c2ccc(C3=CCCCC3)cc2O[C@H]1CN(C)C(=O)Nc1ccc2c(c1)OCO2", "activity change (Venus) (%)": "-43.37"}
{"smiles": "O=C(C[C@@H]1CC[C@@H]2[C@H](COC[C@H](O)CN2Cc2ccc(Oc3ccccc3)cc2)O1)Nc1nccs1", "activity change (Venus) (%)": "-37.99"}
{"smiles": "CN1c2ccc(-c3ccccc3)cc2[C@@H]2[C@@H](CCN2C(=O)Cc2ccccc2)[C@@H]1CO", "activity change (Venus) (%)": "-50.92"}

Some entries from above, unchanged:

SMILES,activity change (Venus) (%)
CC(C)C#Cc1ccc([C@@H]2[C@@H](CO)N3CCCCN(C(=O)Nc4ccccc4)C[C@H]23)cc1,-45.75
C[C@@H]1CN([C@@H](C)CO)S(=O)(=O)c2ccc(/C=C/c3ccccc3)cc2O[C@@H]1CN(C)C(=O)NC1CCCC1,-43.31